Experimental findings from doi:10.1101/2020.04.10.022483 are described below.

These are yes or no findings as the source states them, for the method shown. Binding seen in cells or lysates may run through a third protein. Some binding calls cover weakened binding; strength is not graded here. Where a sequence is shown, tags or fusion partners need not be part of it.

For the assay, the target named is T1, Hyperpolarization-activated cyclic nucleotide-sensitive isoform 4 (HCN4) channel, HEK-293 stable line (UniProt Q9Y3Q4).
T1 sequence: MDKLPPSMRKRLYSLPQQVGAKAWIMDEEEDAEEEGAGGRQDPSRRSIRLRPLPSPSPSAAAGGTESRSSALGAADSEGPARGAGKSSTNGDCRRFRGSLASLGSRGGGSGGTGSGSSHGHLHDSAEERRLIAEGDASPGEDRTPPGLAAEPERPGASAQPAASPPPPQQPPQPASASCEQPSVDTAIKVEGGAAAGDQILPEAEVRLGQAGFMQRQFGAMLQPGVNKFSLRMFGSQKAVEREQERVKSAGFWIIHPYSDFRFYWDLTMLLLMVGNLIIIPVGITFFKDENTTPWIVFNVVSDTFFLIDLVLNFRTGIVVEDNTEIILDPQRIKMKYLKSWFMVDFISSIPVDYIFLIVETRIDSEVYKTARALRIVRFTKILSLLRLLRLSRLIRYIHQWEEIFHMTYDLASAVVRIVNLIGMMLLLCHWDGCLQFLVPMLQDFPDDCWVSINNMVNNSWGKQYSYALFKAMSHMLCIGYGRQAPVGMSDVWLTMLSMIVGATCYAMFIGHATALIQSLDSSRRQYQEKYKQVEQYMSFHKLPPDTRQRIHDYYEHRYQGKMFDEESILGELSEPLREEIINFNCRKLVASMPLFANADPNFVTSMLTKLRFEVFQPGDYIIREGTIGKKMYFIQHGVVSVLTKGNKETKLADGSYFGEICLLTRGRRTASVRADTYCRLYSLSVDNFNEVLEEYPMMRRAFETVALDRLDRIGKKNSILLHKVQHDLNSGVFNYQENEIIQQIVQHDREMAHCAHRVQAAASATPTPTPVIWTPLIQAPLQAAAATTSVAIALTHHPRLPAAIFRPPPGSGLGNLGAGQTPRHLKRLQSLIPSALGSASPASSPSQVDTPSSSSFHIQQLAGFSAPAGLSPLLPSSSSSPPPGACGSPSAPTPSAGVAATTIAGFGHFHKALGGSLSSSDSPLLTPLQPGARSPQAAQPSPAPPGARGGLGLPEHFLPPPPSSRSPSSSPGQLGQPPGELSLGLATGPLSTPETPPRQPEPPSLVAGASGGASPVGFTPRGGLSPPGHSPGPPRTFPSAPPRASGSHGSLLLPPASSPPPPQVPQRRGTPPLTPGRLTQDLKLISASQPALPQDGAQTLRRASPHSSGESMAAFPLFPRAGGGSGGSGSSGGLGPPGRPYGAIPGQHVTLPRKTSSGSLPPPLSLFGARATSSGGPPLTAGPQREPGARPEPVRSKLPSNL
As to the kind of experiment: co-IP.

B1: Myc-tagged lymphoid-restricted membrane protein (Myc-LRMP), mouse (protein, UniProt Q60664 1-539)
chain: MLCVKGPPEQEPEDGALDVTRGCQCPLPTEDSILGQELLDCTRMNEDQSTDENGAGHFYSESPSQLREYLTQPSSEQTSSSESTVTSSESGSDILHMASGDLDCKPLCEKEEEARAASAMQGTSLAPAAYGDYTSVGVAKAASQLEAGEELRTTENGGKGSAPGETEISMPPKASVKLVNFQQSENTSANEKEVEAEFLRLSLGLKCDWFTLEKRVKLEERSRDLAEENLKKEITNCLKLLESLTPLCEEDNQAQEIVKKLEKSIVLLSQCTARVASRAEMLGAINQESRVSRAVEVMIQHVENLKRMYAKEHAELEDLKQALLQNDRSFNSLPDEDDCQIKKRSSSLNSKPSSLRRVTIASLPRNLGNVGLVSGMENNDRFSRRSSSWRILGTKQGEHRPSLHRFISTYSWADAEDERSDVKARDAPEPQGEEAVERTRKPSLSERRSSTLAWDRGTICSSVASWVTHLQASFRRANRALWLTGLIIILIAALMSFLTGQLFQTAVEAAPTQEGDSWLSLEHILWPFTRLGHDGPPPV
B1: the binding entry is “binds”.

B2: Myc-tagged inositol trisphosphate receptor-associated guanylate kinase substrate (Myc-IRAG), mouse (protein, UniProt Q9WUX5 1-899)
chain: MGRSLTCPFGISPACGAQASWSIFGVGTAEVPGTHSHSNQAAAMPHIPEDEEPPGEPQAAQTQDSPSAGPFPSPPTIVLTGDASSPEGETDKNLVNRAPSPHRRLSHRHLKVSTASLTSVDPSGHVIDLVNDQLPDISISEEDKKKNLALLEEAKLVSERFLTRRGRKSRSSLGDSPSAVSPNLSSGASPASSRSCSLTISTSPGLDICSGPQSPLPGAPPQQKGHEDGVSSPCPGEPNVSKGLADLKQNDQRKVSQGRLAPRSPTVEKTKELTVEQKENFDPLQHVEATPMAQASGASISGKMALNSPQPGPAEMELGRQLLKTAREGNPLPRTTAQGSGGTVSPHSLGQGSAGEPMGPKAGSKAELRSPVSRPPLIRGVSWDSSPEEPGPLLQKVLAKLPLAEEEKRFPGKAKPAKPPGLKDFQIQVQPVRMQKLTKLREEHILMRNQNLVGFKLPELSEAAEQDKGVSPELAPAAEEEESKSGLDVMPNISDILLRKLRVHKSLTGSAPPLTEKEVENVFVQLSLAFRNDSYTLESRINQAERERNLTEENTEKELENFKASITSSANIWYHCEHRETYQKLLEDIAVLHRLAARLSSRAEVVGAVRQEKRMSKATEVMMQYVENLKRTYEKDHAELMEFKKLANQNSSRSCGPSEDGVPRTARSMSLTMGKNMPRRRVSVAVVPKFNALNLPGQAPSSSPMPSLPALSESSNGKSSISVSPALPALLENGKTNAEANCEVGAPVPLPSCLEETSQETKAKAEEEAYSKGYQEGVKKTEELQDLKEEEEEEQKTESPEEPEEVEETQEDEKDQGSSKLEELVHFLQVMYPKLCQHWQVIWMMAAVMLVLSVVLGLYSSYNSCTEEADGPPGRSTCSAAQRDSWWSSGLQQELPAEQ
Turning to B2, the binding entry is “binds”.
